PubChem BioAssay AID588497 (NMMLSC, 2011)
In all, about 360,000 compounds went through this assay and about 780 (0.22%) were called active. The inconclusive results got no clear call from the source; some entries with a clear call stand among them for comparison. Cut-off read from the data, not from the text of the source: active = inhibition above about 35% (passing the limit was not always enough); inconclusive = no clear call, values can overlap the other calls.

system: Botulinum neurotoxin type F light chain protease (Clostridium botulinum); test: BoNT/F light chain protease inhibitors, primary screen, biochemical, flow cytometry, MLPCN library (AID 588497); conditions: Multiplex microsphere protease cleavage assay, at 10 µM, stronger effect = higher value; note: plate controls were buffer without enzyme for full effect and enzyme alone for no effect

| SMILES | inhibition |
| --- | --- |
| CC(=O)Nc1ccc(NC(=O)c2c(C)c(-c3ccccc3)nc3ccccc23)cc1 | inconclusive: 9.7% |
| CCOC(=O)c1cc(C#N)c(SC)nc1C | inconclusive: 26.9% |
| COc1cc(C(=O)OC(C)CN2C(C)CCCC2C)cc(OC)c1OC (centres undefined) | inactive: -28.4% |
| CC(=O)NCCNC(=O)C1(C)Cc2c(-c3cccc(NC(C)=O)c3)ccnc2O1 (centres undefined) | inactive: -8.7% |
| CC(=O)c1sc(C(=O)O)c(-c2ccco2)c1-c1ccco1 | inconclusive: 7.3% |
| COCCCN1C(=O)C(=O)/C(=C(/O)c2ccccc2)C1c1ccc(N(C)C)cc1 (centres undefined) | inactive: -4.2% |
| COc1cc(OC)nc(Oc2cc(C=O)ccc2OC)n1 | inconclusive: -25.1% |
| O=S(=O)(NCc1c(Cl)cccc1Oc1ccccc1)c1ccccc1 | inconclusive: -18.3% |
| COc1cc(C(=O)N2CCN(CC(O)COc3ccccc3)CC2)cc(OC)c1OC (centres undefined) | inconclusive: -9.6% |
| O=c1onc(-c2ccc(Cl)cc2Cl)n1-c1cccnc1 | inconclusive: -0.4% |
| CC(C)(CC(=O)O)CC(=O)Nc1ccc(Cl)c(Cl)c1 | inconclusive: 63.4% |
| O=C(NCCc1ccccc1F)C1CCC(=O)N(CCCN2CCCC2=O)C1 (centres undefined) | inconclusive: -43% |
| COc1cc(SC)ccc1C(=O)NCCOc1c(C)cc(C)cc1C | inactive: -0.7% |
| O=C(CSc1nc(O)c(C2CCCCC2)c(=O)[nH]1)Nc1ccc(F)cc1 | inactive: 1.6% |
| S=C1NCCc2ccccc2C1c1ccccc1 (centres undefined) | inconclusive: -11.4% |
| O=C(NCc1ccncc1)C1CCCN(S(=O)(=O)c2cc(Cl)ccc2Cl)C1 (centres undefined) | inconclusive: -18.5% |
| COc1ccc(-c2cc(C#N)nc(NN)n2)cc1 | inconclusive: -33.5% |
| COc1cc(Cl)c(C)cc1Nc1ncccn1 | inactive: -7.8% |
| CCN1CCOC(CC(=O)Nc2cccc([N+](=O)[O-])c2)C1=O (centres undefined) | inconclusive: 51.8% |
| Cc1ccc(C(=O)N/N=C/c2ccc(S(=O)(=O)O)o2)c(Cl)c1 | inconclusive: -4% |
| COc1ccc(C(=O)Nc2ccc(S(=O)(=O)Nc3nccc(C)n3)cc2)cc1[N+](=O)[O-] | inconclusive: 17.3% |
| COc1ccc(S(=O)(=O)N2CCC[C@H]2C(=O)N2CCC[C@H]2C(=O)N[C@@H](C)c2ccccc2)cc1C | inactive: -3.5% |
| Cn1nc(C(C)(C)C)cc1C(=O)NNC(=O)c1ccc(C(F)(F)F)cc1 | inconclusive: -10.1% |

| SMILES | inhibition |
| --- | --- |
| CCOC(=O)CNC(=O)Cc1ccc(OC)cc1 | inconclusive: 12.8% |
| CN(C)/C=C/C(=O)c1nn(-c2ccc(F)cc2)ccc1=O | inconclusive: 12.6% |
| O=C(OCc1nc2ccccc2[n+]([O-])c1C(=O)c1ccccc1)c1ccco1 | inconclusive: 14.2% |
| O=[N+]([O-])c1ccccc1S(=O)(=O)Nc1ccc2c(c1)OCCO2 | inconclusive: 4.3% |
| CC(=O)Nc1ccc2nc(C)n(Cc3ccc(Cl)cc3)c(=O)c2c1 | inconclusive: -25.6% |
| CC(C)OCCCNC(=O)c1c(N)n(Cc2cccs2)c2nc3ccccc3nc12 | inactive: -14.3% |
| CCOc1ccc2[nH]c(=O)c(C(c3nnnn3C3CCCCC3)N3CCN(C)CC3)cc2c1 (centres undefined) | inactive: 3.1% |
| CSc1ccccc1-n1nnnc1SCC(=O)NCc1cccs1 | inconclusive: -83.3% |
| C=C(C)Cn1c(SCC#N)nc2ccccc2c1=O | inactive: -10.6% |
| COC(=O)CNc1nc(Cl)nc(N2CCC(C)CC2)n1 | inactive: -7.3% |
| CCn1c(SCC(=O)Nc2ccc(OC)cc2)nc2nc3c(cc2c1=O)COC(C)(C)C3 | inconclusive: -33.8% |
| Cc1ccc(NS(=O)(=O)c2cccc3cccnc23)c(Cl)c1 | inconclusive: 1% |
| CCC1=C(OC(=O)N(CC)CC)N2C(=O)OC(=NCCc3c[nH]c4ccccc34)[C@]2(Cc2ccccc2)[C@H]2C1=CC[C@H]1C(=O)NC(=O)[C@H]12 | inactive: -3.9% |
| CC(C)c1cc(C(C)C)n2nc(N)nc2n1 | inconclusive: -10.8% |
| CCOc1cc(C2C3=C(CCCC3=O)Nc3nc(C(=O)OC)nn32)ccc1OC (centres undefined) | inactive: 1% |
| COc1cccc(OC)c1C(=O)NC(C)C12CC3CC(CC(C3)C1)C2 (centres undefined) | active: 35% |
| CCN(CC)c1ccc(NC(=O)CSc2nc3nc(C)cc(C)c3c(=O)[nH]2)cc1 | inconclusive: -13.5% |
| Cc1ccc(-c2nnc(-c3cccnc3)o2)cc1 | active: 55.8% |
| Cc1ccccc1NC(=O)c1ccc2c(c1)C(=O)N(CC(C)C)C2=O | inconclusive: 5.6% |
| O=C(NCc1ccc(Cl)cc1)C1CCCN(c2cnccn2)C1 (centres undefined) | inactive: -0.4% |
| Cc1ccc(C(C)C)cc1S(=O)(=O)NCc1ccccn1 | inconclusive: 22.6% |
| CC(=O)Nc1ccc(NC(=O)C(C)Sc2n[nH]c(=O)n2Cc2ccccc2)cc1 (centres undefined) | inactive: -0.1% |
| COc1ccc(CNC(=O)C(c2ccco2)N(Cc2cccs2)C(=O)Cc2cccs2)cc1 (centres undefined) | inconclusive: 9.1% |

| SMILES | inhibition |
| --- | --- |
| COCC(C)NC(=O)C1CCN(S(=O)(=O)c2ccc3ccccc3c2)CC1 (centres undefined) | inconclusive: -0.4% |
| Cc1nc(-c2ccc(S(=O)(=O)N3CCCN(CCc4ccccc4)CC3)s2)cs1 | inconclusive: -95.1% |
| CC(=O)NCCNC(=O)C1(C)Cc2c(-c3cccc(C(F)(F)F)c3)ccnc2O1 (centres undefined) | inactive: 4.2% |
| COc1ccc(S(=O)(=O)N(C)CC(=O)NCCN2CCOCC2)cc1 | inactive: 13.1% |
| CCOC(=O)C1=C(C)Nc2ccccc2N=C1NC(=O)CCCN1C(=O)c2ccccc2C1=O | inconclusive: -52% |
| CC(=O)N(CCc1ccccc1)Cc1cc2ccc(C)c(C)c2[nH]c1=O | inconclusive: -9.1% |
| COc1ccc(C(=O)NCc2c(C)oc(C)c2C(=O)O)cc1 | active: 36.4% |
| COc1ccc(C(=O)C[n+]2ccc(-c3nnc4n3CCCCC4)cc2)cc1 | inconclusive: -329% |
| Nc1c(Cl)ncnc1N/N=C/c1cccnc1 | inconclusive: -32.9% |
| CCC(Oc1ccccc1OC)C(=O)Nc1ccc2c(c1)n(C)c(=O)n2C (centres undefined) | inconclusive: 42.3% |
| Cc1ccc(C(=O)c2ccccc2C(=O)O)s1 | inconclusive: 3.6% |
| CCCCn1c(N)c(N(Cc2ccccc2OC)C(=O)COc2cc(C)ccc2Cl)c(=O)[nH]c1=O | inconclusive: 9.1% |
| COc1ccc(C(=O)N(Cc2ccccc2)c2cccc(C)c2)cc1S(=O)(=O)N1CCOCC1 | inconclusive: 1.8% |
| CCOCCOC(=O)c1ccc(NC(=O)C2COc3ccccc3O2)cc1 (centres undefined) | inconclusive: -13.2% |
| O=C(CN1CCOCC1)Nc1nc(-c2ccc(Cl)cc2)cs1 | inactive: -33% |
| Cn1nc(-c2ccccc2)cc1NC(=O)[C@@H]1O[C@H](CO)[C@H](O)[C@H](O)[C@H]1O | inactive: -1.4% |
| CC(=O)c1c(COC(=O)c2ccccc2Cl)nc2ccccc2[n+]1[O-] | inconclusive: -44.9% |
| CC1=NN(C(=O)c2ccc(Cn3cc([N+](=O)[O-])cn3)cc2)C(O)(C(F)(F)F)C1 (centres undefined) | inactive: -0.6% |
| Cc1nnsc1C(=O)N1CCN(c2ccc(F)cc2)CC1 | inconclusive: -81.5% |
| CN(Cc1cnn(C)c1)S(=O)(=O)c1cccc([N+](=O)[O-])c1 | inactive: -1.2% |
| COc1ccc(CC(=O)NCC(=O)NC(Cc2ccccc2)C(=O)O)cc1 (centres undefined) | inconclusive: -1.7% |
| O=C(Nc1nnc(CCc2ccccc2)s1)C1CCCO1 (centres undefined) | active: 37% |
| Cc1c(Cl)cccc1NC(=O)CCN1CCOCC1 | inconclusive: -3.4% |

Taken from above, 16 compounds:

| SMILES | inhibition |
| --- | --- |
| CCOC(=O)c1cc(C#N)c(SC)nc1C | inconclusive: 26.9% |
| COc1cc(C(=O)OC(C)CN2C(C)CCCC2C)cc(OC)c1OC (centres undefined) | inactive: -28.4% |
| CC(=O)NCCNC(=O)C1(C)Cc2c(-c3cccc(NC(C)=O)c3)ccnc2O1 (centres undefined) | inactive: -8.7% |
| CC(=O)c1sc(C(=O)O)c(-c2ccco2)c1-c1ccco1 | inconclusive: 7.3% |
| COCCCN1C(=O)C(=O)/C(=C(/O)c2ccccc2)C1c1ccc(N(C)C)cc1 (centres undefined) | inactive: -4.2% |
| COc1cc(OC)nc(Oc2cc(C=O)ccc2OC)n1 | inconclusive: -25.1% |
| O=S(=O)(NCc1c(Cl)cccc1Oc1ccccc1)c1ccccc1 | inconclusive: -18.3% |
| COc1cc(C(=O)N2CCN(CC(O)COc3ccccc3)CC2)cc(OC)c1OC (centres undefined) | inconclusive: -9.6% |
| O=c1onc(-c2ccc(Cl)cc2Cl)n1-c1cccnc1 | inconclusive: -0.4% |
| CC(C)(CC(=O)O)CC(=O)Nc1ccc(Cl)c(Cl)c1 | inconclusive: 63.4% |
| O=C(NCCc1ccccc1F)C1CCC(=O)N(CCCN2CCCC2=O)C1 (centres undefined) | inconclusive: -43% |
| COc1cc(SC)ccc1C(=O)NCCOc1c(C)cc(C)cc1C | inactive: -0.7% |
| O=C(CSc1nc(O)c(C2CCCCC2)c(=O)[nH]1)Nc1ccc(F)cc1 | inactive: 1.6% |
| S=C1NCCc2ccccc2C1c1ccccc1 (centres undefined) | inconclusive: -11.4% |
| O=C(NCc1ccncc1)C1CCCN(S(=O)(=O)c2cc(Cl)ccc2Cl)C1 (centres undefined) | inconclusive: -18.5% |
| COc1ccc(-c2cc(C#N)nc(NN)n2)cc1 | inconclusive: -33.5% |

Additional structures follow.

| SMILES | inhibition |
| --- | --- |
| OC(C#CCCN1CCCCC1)(c1ccccc1)c1ccccc1 | inconclusive: 13.6% |
| O=C1NC2(CCCCC2)C(=O)N1CCS(=O)(=O)Oc1ccccc1 | inconclusive: 16.7% |
| N#C/C(C(N)=O)=C1/CCCN1Cc1ccccc1 | inconclusive: -7.9% |
| C/C(=N\Nc1nccnc1Cl)c1ccc(Br)cc1 | inconclusive: 5.3% |
| NS(=O)(=O)c1cccc(NC(=O)CSc2nc3ccccc3c(=O)n2CC2CCCO2)c1 (centres undefined) | inactive: -8.4% |
| C=CCNC(=O)c1c(N)n(CCN2CCOCC2)c2nc3ccccc3nc12 | inactive: 1.5% |
| CCc1c(C)nc(N2CCN(c3ccccc3)CC2)[nH]c1=O | inconclusive: 15.8% |
| COC(=O)C(NC(C)=O)(Nc1cccc(C)n1)C(F)(F)F (centres undefined) | inconclusive: 28.6% |
| CC(=O)Nc1ccc(S(=O)(=O)N(C#N)c2nc(N(C)C)nc(N(C)C)n2)cc1 | inconclusive: -61.4% |
| Cc1ccc(N2C(=O)[C@@H]3C(c4cccnc4)=NO[C@@H]3C2=O)c(C)c1 | inconclusive: -15.6% |
| FC(F)(F)c1cccc(OCc2noc(-c3ccsc3)n2)c1 | inconclusive: -24.3% |
| O=C(/C=C/c1ccco1)Nc1cccc(C(=O)Nc2ccccc2C(=O)O)c1 | inactive: 10% |
| CCCC(=O)Nc1cc(C)c(NC(=O)c2ccco2)cn1 | inconclusive: -12.1% |
| CN(c1ccccc1)S(=O)(=O)c1cccc(C(=O)NCC(c2cccs2)N2CCOCC2)c1 (centres undefined) | inactive: -3.9% |
| CC1CCCC(C)N1CCCNC(=O)Cn1c(=O)c2cccn2c2cccnc21 (centres undefined) | inactive: -13.9% |
| O=[N+]([O-])c1ccc(-c2nc(NCC3CCCO3)c3ccccc3n2)cc1 (centres undefined) | inconclusive: 131% |
| O=S(=O)(NNc1nccc(C(F)(F)F)n1)c1cccc(Cl)c1Cl | inconclusive: 127% |
| C/C(=N\NC(=O)c1cccc(C)c1)c1ccc(N2CCOCC2)cc1 | inactive: -8.8% |
| Cc1cc2oc(=O)cc(CN3CCCCC3C)c2cc1C (centres undefined) | inconclusive: -18.7% |
| Cn1nc(C(=O)Nc2ccccc2Cl)cc1C(=O)Nc1ccccc1Cl | inconclusive: 25.5% |
